Experimental data as given in publication PMC4873792.
These are yes or no findings as the source states them, for the method shown. In cells and extracts the contact can be indirect. Some binding calls cover weakened binding; strength is not graded here. Sequences can lack the tags named with a protein.

By UniProt entry, the sequences of proteins in these tests, tags left out.
UniProt Q8N608: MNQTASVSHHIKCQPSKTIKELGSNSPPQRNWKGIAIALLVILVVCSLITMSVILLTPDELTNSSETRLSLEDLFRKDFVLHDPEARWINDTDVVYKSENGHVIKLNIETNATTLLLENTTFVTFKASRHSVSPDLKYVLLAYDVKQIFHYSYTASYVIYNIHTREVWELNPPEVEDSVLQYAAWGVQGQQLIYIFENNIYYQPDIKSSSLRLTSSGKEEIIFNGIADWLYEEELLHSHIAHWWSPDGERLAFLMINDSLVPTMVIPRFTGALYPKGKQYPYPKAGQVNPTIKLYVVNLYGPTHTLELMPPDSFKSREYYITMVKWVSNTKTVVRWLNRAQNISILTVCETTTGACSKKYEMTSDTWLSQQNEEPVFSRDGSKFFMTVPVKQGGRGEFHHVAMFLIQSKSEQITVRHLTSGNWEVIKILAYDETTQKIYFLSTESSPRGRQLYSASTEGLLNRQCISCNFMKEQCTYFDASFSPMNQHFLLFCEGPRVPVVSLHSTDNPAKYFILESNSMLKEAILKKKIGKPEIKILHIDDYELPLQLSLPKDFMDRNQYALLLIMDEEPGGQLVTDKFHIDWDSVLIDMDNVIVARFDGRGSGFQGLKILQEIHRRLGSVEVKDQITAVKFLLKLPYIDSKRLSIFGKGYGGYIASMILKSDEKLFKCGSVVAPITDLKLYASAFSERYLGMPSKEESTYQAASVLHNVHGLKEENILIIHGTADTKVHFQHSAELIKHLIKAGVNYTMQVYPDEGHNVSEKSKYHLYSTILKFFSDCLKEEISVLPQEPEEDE
UniProt P27487: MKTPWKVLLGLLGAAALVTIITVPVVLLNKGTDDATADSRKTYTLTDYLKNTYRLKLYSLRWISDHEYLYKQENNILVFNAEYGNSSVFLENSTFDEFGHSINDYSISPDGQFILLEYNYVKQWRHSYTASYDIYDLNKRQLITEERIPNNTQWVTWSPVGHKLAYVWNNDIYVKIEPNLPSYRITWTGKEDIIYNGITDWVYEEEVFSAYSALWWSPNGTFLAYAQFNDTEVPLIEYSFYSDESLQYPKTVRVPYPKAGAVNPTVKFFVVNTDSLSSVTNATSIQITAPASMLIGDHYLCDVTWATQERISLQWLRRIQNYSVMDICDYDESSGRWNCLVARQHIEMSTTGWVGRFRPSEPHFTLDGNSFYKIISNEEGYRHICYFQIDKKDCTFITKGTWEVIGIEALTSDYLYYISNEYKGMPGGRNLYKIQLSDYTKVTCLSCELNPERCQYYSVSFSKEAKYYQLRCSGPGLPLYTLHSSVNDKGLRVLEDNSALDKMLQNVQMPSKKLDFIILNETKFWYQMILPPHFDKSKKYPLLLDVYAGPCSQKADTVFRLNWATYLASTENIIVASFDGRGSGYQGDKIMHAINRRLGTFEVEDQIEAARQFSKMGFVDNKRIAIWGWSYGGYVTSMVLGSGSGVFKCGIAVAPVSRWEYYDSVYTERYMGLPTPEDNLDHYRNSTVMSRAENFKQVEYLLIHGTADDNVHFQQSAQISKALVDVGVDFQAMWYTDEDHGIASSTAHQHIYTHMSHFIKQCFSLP

Tests used:
[1] = molecular target: N-terminally Flag-tagged human DPP10 (human) (UniProt Q8N608); test: co-IP; HEK293 cells co-transfected with Flag-tagged DPP cDNA (8 ug) and Myc-Kv4.3 cDNA (2 ug); extract in 20 mM Tris-HCl pH 7.4, 0.2 M NaCl, 1% Triton X-100, 1 mM EDTA; precipitation with anti-Flag antibody-conjugated resin, immunoblot
[2] = molecular target: N-terminally Flag-tagged human DPP4 (human) (UniProt P27487); test: as above

B1: Myc-tagged rat Kv4.3 (protein, UniProt Q62897 1-655)
chain: MAAGVAAWLPFARAAAIGWMPVANCPMPLAPADKNKRQDELIVLNVSGRRFQTWRTTLERYPDTLLGSTEKEFFFNEDTKEYFFDRDPEVFRCVLNFYRTGKLHYPRYECISAYDDELAFYGILPEIIGDCCYEEYKDRKRENAERLMDDNESENNQESMPSLSFRQTMWRAFENPHTSTLALVFYYVTGFFIAVSVITNVVETVPCGTVPGSKELPCGERYSVAFFCLDTACVMIFTVEYLLRLFAAPSRYRFIRSVMSIIDVVAIMPYYIGLVMTNNEDVSGAFVTLRVFRVFRIFKFSRHSQGLRILGYTLKSCASELGFLLFSLTMAIIIFATVMFYAEKGSSASKFTSIPASFWYTIVTMTTLGYGDMVPKTIAGKIFGSICSLSGVLVIALPVPVIVSNFSRIYHQNQRADKRRAQKKARLARIRVAKTGSSNAYLHSKRNGLLNEALELTGTPEEEHMGKTTSLIESQHHHLLHCLEKTTGLSYLVDDPLLSVRTSTIKNHEFIDEQMFEQNCMESSMQNYPSTRSPSLSSHSGLTTTCCSRRSKKTTHLPNSNLPATRLRSMQELSTIHIQGSEQPSLTTSRSSLNLKADDGLRPNCKTSQITTAIISIPTPPALTPEGESRPPPASPGPNTNIPSITSNVVKVSVL
Question: Which results are given for B1?
Answer: binding [1]: binds; binding [2]: no binding
